We go through one substance from article PMC9374683.

No constants are given. Whether binding was seen depends on the method and setting. A result given as binding can be weak or reduced; the word gives no strength. Tags and fused reporters may be left off the sequences shown.

This assay addresses T1, HIS6-tagged CtpC (M. tuberculosis) (UniProt P9WPT5).
T1 sequence: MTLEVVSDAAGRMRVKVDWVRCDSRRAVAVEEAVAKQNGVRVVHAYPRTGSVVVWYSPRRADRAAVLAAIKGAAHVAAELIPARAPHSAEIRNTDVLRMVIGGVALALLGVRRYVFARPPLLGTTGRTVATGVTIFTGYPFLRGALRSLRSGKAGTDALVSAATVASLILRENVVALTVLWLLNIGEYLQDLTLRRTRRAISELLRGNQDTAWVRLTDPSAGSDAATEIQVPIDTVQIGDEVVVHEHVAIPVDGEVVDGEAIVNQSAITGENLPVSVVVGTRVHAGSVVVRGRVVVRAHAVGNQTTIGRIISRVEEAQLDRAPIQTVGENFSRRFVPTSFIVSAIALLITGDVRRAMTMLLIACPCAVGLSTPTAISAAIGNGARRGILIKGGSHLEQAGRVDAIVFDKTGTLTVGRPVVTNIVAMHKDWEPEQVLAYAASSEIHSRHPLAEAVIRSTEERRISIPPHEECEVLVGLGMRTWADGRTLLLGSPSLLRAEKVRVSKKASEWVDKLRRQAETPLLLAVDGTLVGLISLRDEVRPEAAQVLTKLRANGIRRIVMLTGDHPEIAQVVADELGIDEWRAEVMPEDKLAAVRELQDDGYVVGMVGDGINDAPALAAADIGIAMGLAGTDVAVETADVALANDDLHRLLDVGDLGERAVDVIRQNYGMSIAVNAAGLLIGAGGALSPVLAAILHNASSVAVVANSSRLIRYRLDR
Put plainly: native gel or EMSA; Blue-native PAGE (3-12% Bis-Tris) of membrane proteins solubilised with 0.25% DDM from M. smegmatis Δ2 membrane fractions; PVDF blot revealed by FLAG and HIS6 immuno-detection. A general note: In EMSA bound probe runs differently from free probe, usually more slowly.

For the substance FLAG-tagged PacL1 (M. tuberculosis), the binding result was “binds”.
